Assay results: PubChem BioAssay (EPA / NIEHS)
“And” between values parts separate entries of the source, which are not always exact repeats. Identical values can stand only once. The shares of active, inactive and inconclusive entries below differ from those in the screen. For part of these data: Potencies of inconclusive entries are doubtful fits and often do not repeat. The source made the active and inactive calls. How the source made its calls: active means hit-call score of the fitted dose curve at least 0.9, where 1 is the maximum; inconclusive means response in the unintended direction; inactive means score below 0.9.

Chains of the proteins cited; added tags and fusions are not shown. Lines headed by an entry give the natural chain unless they say otherwise; changes in a name come on top.
UniProt Q9UBN7: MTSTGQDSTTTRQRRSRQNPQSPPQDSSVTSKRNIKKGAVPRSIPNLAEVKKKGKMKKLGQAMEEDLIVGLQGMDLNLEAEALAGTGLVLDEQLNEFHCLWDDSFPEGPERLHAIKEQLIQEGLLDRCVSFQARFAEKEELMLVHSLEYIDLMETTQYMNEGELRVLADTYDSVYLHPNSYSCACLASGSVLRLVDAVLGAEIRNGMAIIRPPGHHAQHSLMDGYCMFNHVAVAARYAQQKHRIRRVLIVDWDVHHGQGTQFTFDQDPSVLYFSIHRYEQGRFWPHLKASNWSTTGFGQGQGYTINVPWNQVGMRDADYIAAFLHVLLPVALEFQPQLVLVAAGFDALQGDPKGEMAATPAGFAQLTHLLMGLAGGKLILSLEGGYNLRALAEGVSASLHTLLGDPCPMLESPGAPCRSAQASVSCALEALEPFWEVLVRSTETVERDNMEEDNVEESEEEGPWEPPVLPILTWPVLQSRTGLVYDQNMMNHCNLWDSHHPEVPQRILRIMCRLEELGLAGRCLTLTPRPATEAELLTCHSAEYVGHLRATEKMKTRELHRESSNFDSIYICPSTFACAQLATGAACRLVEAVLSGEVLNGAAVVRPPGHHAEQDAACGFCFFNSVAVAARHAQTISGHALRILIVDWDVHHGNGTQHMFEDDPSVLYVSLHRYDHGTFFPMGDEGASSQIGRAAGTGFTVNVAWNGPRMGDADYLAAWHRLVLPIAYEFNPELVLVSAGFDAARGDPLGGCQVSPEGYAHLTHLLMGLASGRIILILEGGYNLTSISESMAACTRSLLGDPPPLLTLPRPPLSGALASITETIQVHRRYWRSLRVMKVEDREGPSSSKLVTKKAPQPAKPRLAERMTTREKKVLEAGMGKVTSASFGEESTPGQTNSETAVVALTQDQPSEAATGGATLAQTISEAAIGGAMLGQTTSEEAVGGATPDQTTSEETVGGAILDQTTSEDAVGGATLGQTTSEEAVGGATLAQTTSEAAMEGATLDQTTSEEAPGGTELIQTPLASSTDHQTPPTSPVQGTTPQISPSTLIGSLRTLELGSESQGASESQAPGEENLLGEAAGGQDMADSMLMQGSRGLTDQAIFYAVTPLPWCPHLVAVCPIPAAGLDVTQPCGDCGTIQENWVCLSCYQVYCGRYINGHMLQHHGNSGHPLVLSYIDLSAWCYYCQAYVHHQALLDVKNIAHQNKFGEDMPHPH
UniProt P49841: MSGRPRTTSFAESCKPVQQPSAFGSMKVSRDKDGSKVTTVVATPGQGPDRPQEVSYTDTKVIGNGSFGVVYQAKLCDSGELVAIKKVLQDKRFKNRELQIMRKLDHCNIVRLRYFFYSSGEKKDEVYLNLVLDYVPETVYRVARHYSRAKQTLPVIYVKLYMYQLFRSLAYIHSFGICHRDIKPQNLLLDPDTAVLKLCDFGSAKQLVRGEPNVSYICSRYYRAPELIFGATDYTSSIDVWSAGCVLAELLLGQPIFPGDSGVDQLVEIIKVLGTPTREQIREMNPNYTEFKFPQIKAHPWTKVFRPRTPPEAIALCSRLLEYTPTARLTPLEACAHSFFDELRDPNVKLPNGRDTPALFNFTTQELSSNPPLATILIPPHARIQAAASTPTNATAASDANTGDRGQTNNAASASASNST
UniProt O15111: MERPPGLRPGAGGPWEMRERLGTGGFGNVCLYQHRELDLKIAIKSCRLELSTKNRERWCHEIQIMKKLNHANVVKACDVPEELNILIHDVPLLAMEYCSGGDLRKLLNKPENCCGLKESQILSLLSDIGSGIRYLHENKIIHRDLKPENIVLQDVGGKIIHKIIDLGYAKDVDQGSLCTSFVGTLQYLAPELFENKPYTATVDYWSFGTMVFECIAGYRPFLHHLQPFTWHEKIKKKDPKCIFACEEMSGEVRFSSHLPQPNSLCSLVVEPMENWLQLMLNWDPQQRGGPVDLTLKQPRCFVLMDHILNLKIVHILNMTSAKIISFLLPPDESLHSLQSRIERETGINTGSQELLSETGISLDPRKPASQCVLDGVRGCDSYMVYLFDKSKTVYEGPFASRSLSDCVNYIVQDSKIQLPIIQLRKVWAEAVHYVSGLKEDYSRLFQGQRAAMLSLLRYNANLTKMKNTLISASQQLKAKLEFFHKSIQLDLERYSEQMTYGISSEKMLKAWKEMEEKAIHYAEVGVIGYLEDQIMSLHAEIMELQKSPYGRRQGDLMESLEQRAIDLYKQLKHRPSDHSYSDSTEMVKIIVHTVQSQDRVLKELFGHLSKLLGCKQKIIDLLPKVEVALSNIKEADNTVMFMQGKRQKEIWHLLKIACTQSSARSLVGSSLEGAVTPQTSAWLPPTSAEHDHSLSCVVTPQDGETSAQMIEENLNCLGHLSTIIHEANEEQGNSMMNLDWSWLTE
UniProt O60674: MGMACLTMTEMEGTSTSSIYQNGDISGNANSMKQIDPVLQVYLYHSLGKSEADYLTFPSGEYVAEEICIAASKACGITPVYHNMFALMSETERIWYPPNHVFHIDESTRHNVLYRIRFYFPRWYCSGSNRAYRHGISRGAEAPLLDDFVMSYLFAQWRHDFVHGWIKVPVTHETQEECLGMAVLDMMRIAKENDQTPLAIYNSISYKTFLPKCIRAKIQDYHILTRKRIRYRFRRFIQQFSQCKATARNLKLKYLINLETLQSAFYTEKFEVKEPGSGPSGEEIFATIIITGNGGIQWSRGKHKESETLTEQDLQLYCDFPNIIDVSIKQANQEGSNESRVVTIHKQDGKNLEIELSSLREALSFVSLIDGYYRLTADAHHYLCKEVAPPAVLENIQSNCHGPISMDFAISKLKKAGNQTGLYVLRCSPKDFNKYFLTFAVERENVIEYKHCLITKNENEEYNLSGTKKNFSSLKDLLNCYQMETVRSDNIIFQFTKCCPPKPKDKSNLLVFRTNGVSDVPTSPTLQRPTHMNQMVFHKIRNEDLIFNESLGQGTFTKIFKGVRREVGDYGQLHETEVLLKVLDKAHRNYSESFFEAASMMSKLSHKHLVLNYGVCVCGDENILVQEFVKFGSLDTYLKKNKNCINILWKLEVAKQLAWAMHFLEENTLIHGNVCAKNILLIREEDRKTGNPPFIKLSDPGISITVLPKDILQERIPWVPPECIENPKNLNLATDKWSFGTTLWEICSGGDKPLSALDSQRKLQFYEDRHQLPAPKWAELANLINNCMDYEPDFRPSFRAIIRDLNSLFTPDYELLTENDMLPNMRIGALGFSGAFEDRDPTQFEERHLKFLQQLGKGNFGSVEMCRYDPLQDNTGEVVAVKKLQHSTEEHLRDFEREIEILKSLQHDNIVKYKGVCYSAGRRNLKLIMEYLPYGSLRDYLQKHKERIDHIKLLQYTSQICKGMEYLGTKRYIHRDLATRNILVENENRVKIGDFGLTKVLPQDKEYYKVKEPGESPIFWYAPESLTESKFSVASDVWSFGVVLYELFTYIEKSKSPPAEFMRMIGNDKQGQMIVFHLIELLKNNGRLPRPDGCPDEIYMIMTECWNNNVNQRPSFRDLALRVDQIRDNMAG
UniProt P07948: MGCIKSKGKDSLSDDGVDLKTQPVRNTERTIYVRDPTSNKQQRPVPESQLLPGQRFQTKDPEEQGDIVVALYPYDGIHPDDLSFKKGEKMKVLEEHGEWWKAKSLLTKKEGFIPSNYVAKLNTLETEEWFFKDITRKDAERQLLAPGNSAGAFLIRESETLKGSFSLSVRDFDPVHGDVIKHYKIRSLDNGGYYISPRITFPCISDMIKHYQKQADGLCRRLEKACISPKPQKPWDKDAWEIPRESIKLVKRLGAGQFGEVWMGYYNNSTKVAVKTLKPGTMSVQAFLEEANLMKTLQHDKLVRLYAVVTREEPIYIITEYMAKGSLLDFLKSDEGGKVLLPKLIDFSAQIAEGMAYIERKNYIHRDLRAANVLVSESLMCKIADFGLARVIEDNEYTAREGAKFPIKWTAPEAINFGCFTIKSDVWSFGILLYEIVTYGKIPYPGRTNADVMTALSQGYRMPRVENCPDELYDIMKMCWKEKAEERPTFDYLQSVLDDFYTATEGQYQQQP

The molecules below were run against Protein deacetylase HDAC6 (Homo sapiens) (UniProt Q9UBN7) (assay: NVS_ENZ_hHDAC6: NovaScreen (NVS) Enzymatic Assay for human Histone Deacetylase 6 (HDAC6) (AID 2283164)).
Summary of the method: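 Concentration-response runs up to 50 uM followed a duplicate 25 uM single-point screen. Deacetylase activity of recombinant human HDAC6 read by fluorescence after 1 h, with mobility-shift separation of substrate and product; DMSO as baseline.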

Row | SMILES | AC50 | outcome
1 | C[N+](C)(C)CC1CO1 (stereo unspecified) | inconclusive: 25 µM | 
2 | O=C(O)CC(O)(CC(=O)O)C(=O)O | inconclusive: 25 µM | 
3 | CC(C)(O)C(=O)Nc1ccc([N+](=O)[O-])c(C(F)(F)F)c1 | inconclusive: 0.0914 µM | 
4 | C[C@]12CCC(=O)C[C@@H]1CC[C@@H]1[C@@H]2CC[C@]2(C)[C@@H](O)CC[C@@H]12 |  | inactive
5 | CO[C@@H]1[C@H](OC(=O)NC(=O)CCl)CC[C@]2(CO2)[C@H]1[C@@]1(C)O[C@@H]1CC=C(C)C | inconclusive: 0.00234 µM | 

These molecules were tested against Glycogen synthase kinase-3 beta (Homo sapiens) (UniProt P49841) (assay: NVS_ENZ_hGSK3b: NovaScreen (NVS) Enzymatic Assay for human Glycogen Synthase Kinase-3 beta (GSK3b) (AID 2283165)).
Summary of the method: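 Recombinant enzyme with specific fluorescent substrate, 1 h, product separated by electrophoretic mobility shift. Primary duplicate screen at 25 uM; actives (e.g. 30% inhibition) followed in singleton concentration-response to 50 uM. Signal loss fitted versus DMSO.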

Row | SMILES | outcome | AC50
6 | Cc1ccccc1N | inactive | 
7 | CC(C)(c1ccccc1)c1ccc(O)cc1 |  | inconclusive: 1.26 µM
8 | CCOP(=S)(OCC)SCSP(=S)(OCC)OCC |  | inconclusive: 25 µM
9 | OCCOCCO |  | inconclusive: 25 µM
10 | C1CC2OC2CC1C1CO1 (stereo unspecified) | inactive | 
11 | COc1cc(C=O)cc2c1[C@H](COC(N)=O)[C@]1(OC(C)=O)ON2C[C@H]2[C@@H]1N2C(C)=O |  | inconclusive: 0.195 µM
12 | Oc1cccc2cccnc12 |  | inconclusive: 25 µM
13 | CC(C)(C)c1cc(O)ccc1O |  | inconclusive: 25 µM
14 | CCC(C)(C)c1ccc(O)cc1 | inactive | 

Each molecule was assayed against human IkappaB Kinase alpha (IKKa), CHUK (gene 1147) (UniProt O15111) (assay: NVS_ENZ_hIKKa: NovaScreen (NVS) Enzymatic Assay for human IkappaB Kinase alpha (IKKa) (AID 2283167)).
Summary of the method: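 Compounds first run in duplicate at 25 uM, those meeting threshold (e.g. 30% inhibition) retested to maximum 50 uM. Enzyme activity of recombinant IKKa measured by fluorescence with electrophoretic mobility shift separation, 1 hour post-dosing, DMSO baseline.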

Row | SMILES | AC50 | outcome
15 | CC(Oc1ccc(Cl)cc1Cl)C(=O)O (stereo unspecified) | inconclusive: 25 µM | 
16 | COc1cccc(C(=O)NN(C(=O)c2cc(C)cc(C)c2)C(C)(C)C)c1C |  | inactive
17 | O=S(=O)(O)C(F)(F)C(F)(F)C(F)(F)C(F)(F)C(F)(F)C(F)(F)F |  | inactive
18 | Clc1ccc(Cl)c(Cl)c1 | inconclusive: 25 µM | 
19 | O=C1C2CC=CCC2C(=O)N1SC(Cl)(Cl)Cl (stereo unspecified) | inconclusive: 25 µM | 
20 | CSc1nc(NC(C)C)nc(NC(C)C)n1 | inconclusive: 25 µM | 
21 | CCOC(=O)COc1cc(-c2nn(C)c(OC(F)F)c2Cl)c(F)cc1Cl | inconclusive: 0.972 µM | 
22 | Cc1cccc(N)c1 |  | inactive
23 | CCC(CC)Nc1c([N+](=O)[O-])cc(C)c(C)c1[N+](=O)[O-] |  | inactive
24 | CNC(=S)S |  | inactive

These molecules were tested against human Janus Kinase 2 (Jak2), JAK2 (gene 3717) (UniProt O60674) (assay: NVS_ENZ_hJak2: NovaScreen (NVS) Enzymatic Assay for human Janus Kinase 2 (Jak2) (AID 2283169)).
Summary of the method: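 Single-point duplicate screen at 25 uM, with hits run in concentration series to a 50 uM top dose. Substrate-product separation by mobility shift with fluorescence detection, 1 h post-dosing; DMSO baseline.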

Row | SMILES | outcome | AC50
25 | COC(=O)c1ccccc1CS(=O)(=O)NC(=O)Nc1nc(OC)cc(OC)n1 | inactive | 
26 | CC[C@H](C)[C@H]1O[C@]2(C=C[C@@H]1C)C[C@@H]1C[C@@H](C/C=C(\C)[C@@H](O[C@H]3C[C@H](OC)[C@@H](O[C@H]4C[C@H](OC)[C@@H](O)[C@H](C)O4)[C@H](C)O3)[C@@H](C)/C=C/C=C3\CO[C@@H]4[C@H](O)C(C)=C[C@@H](C(=O)O1)[C@]34O)O2 (tested in a mixture with another compound) |  | active: 13.8 µM
27 | COc1cc(C=O)cc2c1[C@H](COC(N)=O)[C@]1(OC(C)=O)ON2C[C@H]2[C@@H]1N2C(C)=O |  | active: 0.00608 µM

These molecules were tested against human LYN Proto-Oncogene, Src family Tyrosine Kinase (LynA), LYN (gene 4067) (UniProt P07948) (assay: NVS_ENZ_hLynA: NovaScreen (NVS) Enzymatic Assay for human LYN Proto-Oncogene, Src family Tyrosine Kinase (LynA) (AID 2283173)).
Summary of the method: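 Recombinant kinase with fluorescent substrate; product separated from substrate by electrophoretic mobility shift and read 1 h after dosing. Duplicate screen at 25 uM, then concentration-response up to 50 uM; activity scored as signal loss against DMSO.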

Row | SMILES | AC50 | outcome
28 | CNC(=O)Oc1ccccc1OC(C)C | inconclusive: 25000 nM | 
29 | COc1nc(C)nc(NC(=O)NS(=O)(=O)c2ccccc2CCC(F)(F)F)n1 | inconclusive: 2.99 µM and inconclusive: 8.13 µM and inconclusive: 6.04 µM | 
30 | O=S(=O)(O)C(F)(F)C(F)(F)C(F)(F)C(F)(F)C(F)(F)C(F)(F)F | inconclusive: 25000 nM | 
31 | Cc1cc(Cl)ccc1OCC(=O)O | inconclusive: 431 nM | 
32 | Clc1ccc(Cl)c(Cl)c1 |  | inactive
33 | Cc1cccc(N)c1 |  | inactive
34 | O=[N+]([O-])c1ccc(Cl)c(Cl)c1 | inconclusive: 631 nM | 
35 | CC(C)(C)C(O)(CCc1ccc(Cl)cc1)Cn1cncn1 (stereo unspecified) | inconclusive: 190 nM | 
36 | COC(=O)c1ccccc1C(=O)OC |  | inactive
